Measured values: US20200405700A1 (priority 2019, published 2020)
Structures can show the parent of a compound that is named as a salt.

Experiment: Aerodynamic particle size distribution on Next Generation Impactor (NGI)
Format: physicochemical
Settings: sample 14 sprayed by soft mist inhaler, NGI at 30 L/min
Procedure: Sample 14 was sprayed by a soft mist inhaler. Aerodynamic particle size distribution of droplets of sample 14 was measured on a Next Generation Impactor (NGI). Next Generation Impactor operated at a flow rate of 30 L/min was used for determination of particle size distribution. For each of the impactor experiments, the impactor collection stages were coated with a silicone oil. The particle size distribution is expressed in terms of mass median aerodynamic diameter (MMAD) and Geometric Standard Deviation (GSD).

SMILES: COc1ccc(CC(C)NCC(O)c2ccc(O)c(NC=O)c2)cc1 (stereo not shown) [Formoterol fumarate, N-[2-hydroxy-5-(1-hydroxy-2-((2-(4-methoxyphenyl)-1-methylethy-1)amino)-ethyl)phenyl]formamide]
- MMAD (mass median aerodynamic diameter): 4.50 μm
